From US10881110B2, “Herbicidal compositions comprising isoxazolo[5,4-b]pyridines” (BASF SE, priority 2014, dated 2021)
Where “and” joins values, the source holds several entries; their conditions need not be identical. Identical values can stand only once. At least one read-out could not be matched to a standard name with certainty.

Columns and labels:
Experiment in all cases: greenhouse post-emergence herbicidal test
KCHSC = format: in vivo, Kochia scoparia; parameters: key: rating on a scale from 0 to 100
Description: (§1) The culture containers used were plastic pots containing medium loamy sand with approximately 4.6% of humus and 69.9% sand as substrate. The seeds of the test plants were sown separately for each species.
(§2) For the post-emergence treatment, the test plants were grown to a plant height of from 1 to 15 cm, depending on the plant habit, and only then treated with the active compounds which had been suspended or emulsified in water. To this end, the test plants were either sown directly, and grown in the same containers, or they were first grown separately as seedlings and transplanted into the test containers a few days prior to treatment.
(§3) Depending on the species, the plants were kept at 10-25° C. and 20-35° C., respectively.
(§4) The test period extended over 1 to 3 weeks. During this time, the plants were tended and their response to the individual treatments was evaluated 20 days after treatment except mentioned otherwise.
(§5) Evaluation was carried out using a scale from 0 to 100. […]
(§6) In the examples below, using the method of S. R. Colby (1967) “Calculating synergistic and antagonistic responses of herbicide combinations”, Weeds 15, p. 22 ff., the value E, which is expected if the activity of the individual active compounds is only additive, was calculated. […]

ALOMY = format: in vivo, Alopecurus myosuroides; parameters: key: rating on a scale from 0 to 100; conditions: I.1 125 g/ha a.i.
Description: as §1, §2, §3, §4, §5, §6

POLCO = format: in vivo, Polygonum convolvulus; parameters: key: rating on a scale from 0 to 100
Description: as §1, §2, §3, §4, §5, §6

ECHCG = format: in vivo, Echinochloa crus-galli; parameters: key: scale 0 to 100; conditions: I.1 62.5 g/ha a.i.
Description: as §1, §2, §3, §4, §5, §6

IPOHE = format: in vivo, Ipomoea hederacea; parameters: key: rating on a scale from 0 to 100
Description: as §1, §2, §3, §4, §5, §6

MATCH = format: in vivo, Matricaria recutita; parameters: key: rating on a scale from 0 to 100; conditions: 62.5 g/ha a.i.
Description: as §1, §2, §3, §4, §5, §6

O=C(O)c1cc(C2CC2)nc2onc(C3CC3)c12 [I.1]
herbicidal activity against KCHSC found (KCHSC; 31.25 g/ha a.i.): 90 | herbicidal activity against KCHSC found (KCHSC; single active, 62.5 g/ha a.i.): 60 | herbicidal activity against ALOMY found (ALOMY): 35 | herbicidal activity against POLCO found (POLCO; I.1 alone 125 g/ha a.i.): 85 | herbicidal activity against POLCO found (POLCO; single active, 62.5 g/ha a.i.): 40 and 75 | herbicidal activity against ECHCG found (ECHCG): 60 and 85 | herbicidal activity against IPOHE found (IPOHE; 31.25 g/ha a.i.): 70 | herbicidal activity against IPOHE found (IPOHE; I.1 alone 31.25 g/ha a.i.): 65 and 40 | herbicidal activity against MATCH found (MATCH): 70
